Laboratory results reported in publication doi:10.1101/2020.12.09.418798.
No constants are given. Whether binding was seen depends on the method and setting. In cells and extracts the contact can be indirect. Some binding calls cover weakened binding; strength is not graded here. Where a sequence is shown, tags or fusion partners need not be part of it.

Amino acid sequences for entries named in this document (tags omitted).
UniProt Q8RY59: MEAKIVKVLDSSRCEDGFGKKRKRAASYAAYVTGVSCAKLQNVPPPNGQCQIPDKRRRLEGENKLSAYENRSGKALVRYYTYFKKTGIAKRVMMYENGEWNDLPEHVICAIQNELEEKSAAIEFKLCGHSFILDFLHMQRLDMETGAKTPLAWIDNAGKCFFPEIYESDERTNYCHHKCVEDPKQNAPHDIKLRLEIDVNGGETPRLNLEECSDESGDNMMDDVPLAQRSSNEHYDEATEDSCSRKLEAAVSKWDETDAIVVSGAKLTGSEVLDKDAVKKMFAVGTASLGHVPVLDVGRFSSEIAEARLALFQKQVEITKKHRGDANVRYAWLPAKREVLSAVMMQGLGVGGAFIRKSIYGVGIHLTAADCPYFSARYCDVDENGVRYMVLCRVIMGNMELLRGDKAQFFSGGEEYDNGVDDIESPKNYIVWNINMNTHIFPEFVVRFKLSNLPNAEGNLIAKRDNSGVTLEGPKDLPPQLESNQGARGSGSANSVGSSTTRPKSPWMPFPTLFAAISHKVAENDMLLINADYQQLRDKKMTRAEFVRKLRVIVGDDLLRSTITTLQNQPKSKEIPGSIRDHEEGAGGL

Experiments:
[1] = molecular target: RADICAL-INDUCED CELL DEATH1 (RCD1), cYFP fusion (Arabidopsis) (UniProt Q8RY59); experiment: split reporter
[2] = molecular target: T1, SIMILAR TO RCD-ONE 1 (SRO1), cYFP fusion (Arabidopsis) (UniProt O82289); experiment: split reporter
T1 sequence: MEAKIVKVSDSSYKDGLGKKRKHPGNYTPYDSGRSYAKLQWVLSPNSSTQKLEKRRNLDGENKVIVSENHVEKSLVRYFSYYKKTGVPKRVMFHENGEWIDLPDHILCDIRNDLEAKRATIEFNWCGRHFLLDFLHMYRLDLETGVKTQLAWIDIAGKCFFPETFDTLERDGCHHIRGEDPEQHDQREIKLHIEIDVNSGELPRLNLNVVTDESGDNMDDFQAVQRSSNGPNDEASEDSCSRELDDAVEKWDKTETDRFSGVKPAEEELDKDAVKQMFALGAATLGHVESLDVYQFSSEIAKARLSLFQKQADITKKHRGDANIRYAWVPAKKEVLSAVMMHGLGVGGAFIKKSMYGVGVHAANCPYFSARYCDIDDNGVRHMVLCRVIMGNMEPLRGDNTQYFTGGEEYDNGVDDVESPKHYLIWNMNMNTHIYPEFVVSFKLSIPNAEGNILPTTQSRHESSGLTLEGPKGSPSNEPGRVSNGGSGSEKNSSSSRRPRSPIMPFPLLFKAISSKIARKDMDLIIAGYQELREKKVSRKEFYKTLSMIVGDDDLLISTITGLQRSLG

B1: Dehydration-Responsive Element-Binding Protein 2B (DREB2B), nYFP fusion (protein, UniProt O82133 1-330)
chain: MAVYEQTGTEQPKKRKSRARAGGLTVADRLKKWKEYNEIVEASAVKEGEKPKRKVPAKGSKKGCMKGKGGPDNSHCSFRGVRQRIWGKWVAEIREPKIGTRLWLGTFPTAEKAASAYDEAATAMYGSLARLNFPQSVGSEFTSTSSQSEVCTVENKAVVCGDVCVKHEDTDCESNPFSQILDVREESCGTRPDSCTVGHQDMNSSLNYDLLLEFEQQYWGQVLQEKEKPKQEEEEIQQQQQEQQQQQLQPDLLTVADYGWPWSNDIVNDQTSWDPNECFDINELLGDLNEPGPHQSQDQNHVNSGSYDLHPLHLEPHDGHEFNGLSSLDI
binding [1]: binds | binding [2]: binds
